PubChem BioAssay AID652259, Drosophila RNAi Screening Center – 2013

- Screen: 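Knock-downs that push a Wingless-driven reporter up or down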 (primary screen)
- System: Drosophila clone 8 imaginal disc epithelial cells
- Knock-down reagent: long dsRNA against Drosophila genes
- Treatment: pathway stimulated by co-transfected Wingless expression plasmid
- Detection: 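Firefly luciferase from a tcf-site Wingless reporter, measured alongside co-transfected Renilla luciferase that tracks transfection; pathway stimulated by a Wingless plasmid; the firefly-to-Renilla ratio is not deposited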
- Scale: firefly reporter light: higher = more Wg reporter light, before normalisation; Renilla control light: higher = more transfected or surviving cells
- Rule for the call: 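a knock-down is a candidate when at least two out of four statistical tests show it departing from its plate mean; one test alone signals a weak candidate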
- Meaning of the calls: active = candidate regulator (raises or lowers reporter); inactive = not a candidate
The screen tested about 22,000 reagents; shown is an unselected part of those with a known target gene and a result. Of all reagents, 233 (1.1%) are marked active. 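Light values are raw, unnormalised plate reads; the ratio scores behind the reporter calls were not deposited.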 A number with no mark means an inactive call. A plus sign joins genes that one reagent is predicted to hit. The record does not give: the amount of reagent, the time to read-out, the dose of the treatment.

| gene | PubChem SID | reporter change call, replicate 1 | firefly reporter light, replicate 1 | firefly reporter light, replicate 2 | Renilla control light, replicate 1 | Renilla control light, replicate 2 |
| --- | --- | --- | --- | --- | --- | --- |
| CngB (Cyclic nucleotide-gated ion channel subunit B) | SID104184089 | – | 18240 | – | 5089 | – |
| RpS10a (Ribosomal protein S10a) | SID104193953 | – | 2741 | 8821 | 1256 | 2939 |
| Ccdc58 + CG34116 | SID104189897 | – | 10113 | – | 3882 | – |
| COX7AL (Cytochrome c oxidase subunit 7A-like) | SID104195105 | – | 9707 | – | 3012 | – |
| Zip71B (Zinc/iron regulated transporter-related protein 71B) | SID104189478 | – | 4884 | – | 1804 | – |
| CG17111 | SID104194966 | – | 18304 | – | 15309 | – |
| Loxl2 (Lysyl oxidase-like 2) | SID104184261 | – | 12269 | – | 3658 | – |
| Polr3K + Tcs1 | SID104185780 | – | 8917 | – | 5270 | – |
| CG13386 | SID104182052 | – | 1866 | 4486 | 640 | 2416 |
| CG12910 | SID104186017 | – | 5923 | – | 1997 | – |
| CG10764 | SID104185792 | – | 16803 | – | 5093 | – |
| alpha-Est7 (alpha-Esterase-7) | SID104192411 | – | 2480 | – | 1280 | – |
| CG43075 | SID104198866 | – | 3863 | – | 1586 | – |
| Cow | SID104193393 | – | 3012 | – | 315 | – |
| Cow | SID104194472 | – | 13765 | – | 13523 | – |
| CG11899 | SID104196448 | – | 6042 | – | 2386 | – |
| CG43329 | SID104191464 | – | 15127 | – | 5193 | – |
| CG6295 | SID104195804 | – | 8700 | – | 2640 | – |
| CG17931 + CG42446 | SID104195085 | – | 21170 | – | 6304 | – |
| CG31897 | SID104180812 | – | 14714 | – | 8199 | – |
| Or10a (Odorant receptor 10a) | SID104200056 | – | 19685 | – | 11559 | – |
| CG8565 | SID104199904 | – | 15456 | – | 8393 | – |
| CG31816 | SID104181339 | – | 19415 | – | 10020 | – |
| atos (atossa) | SID104187110 | – | 6085 | – | 2218 | – |
| Irp-1A (Iron regulatory protein 1A) | SID104196511 | – | 4297 | 10112 | 1893 | 2010 |
| Agxt (Alanine-glyoxylate aminotransferase) | SID104198510 | – | 1872 | 4944 | 611 | 1767 |
| CG17300 | SID104190052 | – | 7028 | – | 3410 | – |
| CG30053 | SID104187052 | – | 4993 | – | 1104 | – |
| Listericin | SID104187126 | – | 9616 | – | 3648 | – |
| corto | SID104191832 | – | 3504 | – | 464 | – |
| corto | SID104192167 | – | 25571 | – | 7949 | – |
| corto | SID104201798 | – | 7.53e5 | 6.70e5 | 3.12e5 | 3.36e5 |
| Tmtc2 (Transmembrane O-mannosyltransferase targeting cadherins 2) | SID104180064 | – | 9408 | – | 2960 | – |
| CG30161 | SID104201692 | – | 5.93e5 | 6.49e5 | 1.30e5 | 1.34e5 |
| AGO1 (Argonaute-1) | SID104185704 | – | 11954 | – | 2875 | – |
| RpL11 (Ribosomal protein L11) | SID104187329 | – | 17408 | – | 2885 | – |
| CG32061 | SID104202020 | – | 5.61e5 | 5.80e5 | 2.37e5 | 79667 |
| HDAC3 (Histone deacetylase 3) | SID104192144 | – | 3032 | – | 1683 | – |
| CG12594 | SID104194324 | – | 23765 | – | 6573 | – |
| Him (Holes in muscle) | SID104199430 | – | 21344 | – | 8274 | – |
| TfAP-2 (Transcription factor AP-2) | SID104191393 | – | 12472 | – | 4567 | – |
| CG17328 | SID104181719 | – | 5360 | 8306 | 2185 | 3588 |
| CG17328 | SID104201915 | – | 9.12e5 | 8.82e5 | 4.95e5 | 4.88e5 |
| Psi (P-element somatic inhibitor) | SID104187311 | – | 9040 | – | 3065 | – |
| CG9568 | SID104183057 | – | 3161 | 6933 | 935 | 3116 |
| CG32755 | SID104198189 | – | 19155 | – | 9799 | – |

Sorted by “firefly reporter light, replicate 1” (ascending): some entries from above.
| gene | PubChem SID | reporter change call, replicate 1 | firefly reporter light, replicate 1 | firefly reporter light, replicate 2 | Renilla control light, replicate 1 | Renilla control light, replicate 2 |
| --- | --- | --- | --- | --- | --- | --- |
| CG13386 | SID104182052 | – | 1866 | 4486 | 640 | 2416 |
| alpha-Est7 (alpha-Esterase-7) | SID104192411 | – | 2480 | – | 1280 | – |
| Cow | SID104193393 | – | 3012 | – | 315 | – |
| CG43075 | SID104198866 | – | 3863 | – | 1586 | – |
| CG12910 | SID104186017 | – | 5923 | – | 1997 | – |
| CG11899 | SID104196448 | – | 6042 | – | 2386 | – |
| CG6295 | SID104195804 | – | 8700 | – | 2640 | – |
| Polr3K + Tcs1 | SID104185780 | – | 8917 | – | 5270 | – |
| Cow | SID104194472 | – | 13765 | – | 13523 | – |
| CG43329 | SID104191464 | – | 15127 | – | 5193 | – |
| CG10764 | SID104185792 | – | 16803 | – | 5093 | – |

Further reagents follow.
| gene | PubChem SID | reporter change call, replicate 1 | firefly reporter light, replicate 1 | firefly reporter light, replicate 2 | Renilla control light, replicate 1 | Renilla control light, replicate 2 |
| --- | --- | --- | --- | --- | --- | --- |
| CG14764 | SID104184864 | – | 17083 | – | 8070 | – |
| CG14764 | SID104186290 | – | 9485 | – | 3089 | – |
| CG14764 | SID104186636 | – | 2802 | 7344 | 760 | 2569 |
| Odc1 (Ornithine decarboxylase 1) | SID104187274 | – | 8448 | – | 3009 | – |
| lncRNA:CR32657 (long non-coding RNA:CR32657) | SID104199195 | – | 15613 | – | 8937 | – |
| CG31111 | SID104194441 | – | 19971 | – | 16037 | – |
| Dred (Dctn1-related) | SID104190849 | – | 15421 | – | 6497 | – |
| Dred (Dctn1-related) | SID104190851 | – | 4075 | – | 1457 | – |
| CG17562 | SID104195035 | – | 13461 | – | 4136 | – |
| oc (ocelliless) | SID104198600 | – | 20890 | – | 9267 | – |
| CG8192 | SID104186893 | Wg reporter activity raised (active) | 42266 | – | 2217 | – |
| CG43673 + CG43672 | SID104199244 | – | 22903 | – | 8682 | – |
| CG43673 + CG43672 | SID104199900 | – | 17191 | – | 6882 | – |
| Lip1 (Lipase 1) | SID104183156 | – | 2283 | 6355 | 1064 | 3184 |
| CG13408 | SID104193326 | – | 5152 | – | 2201 | – |
| CG13408 | SID104194376 | – | 32475 | – | 6505 | – |
| Ugt303B3 (UDP-glycosyltransferase family 303 member B3) | SID104193991 | – | 19814 | – | 17563 | – |
| CG17801 | SID104195065 | – | 19985 | – | 4746 | – |
| brwl (brickwall) | SID104180872 | – | 15928 | – | 4675 | – |
| brwl (brickwall) | SID104182521 | – | 6242 | – | 2965 | – |
| Smu1 (Smu1 spliceosomal factor) | SID104195595 | – | 3873 | 9684 | 592 | 2295 |
| Fancl | SID104194342 | – | 16032 | – | 2952 | – |
| Coq9 (Coenzyme Q9) | SID104202271 | – | 4.63e5 | 4.93e5 | 1.85e5 | 1.47e5 |
| p (pink) | SID104196352 | – | 10124 | – | 3168 | – |
| Rok (Rho kinase) | SID104200069 | – | 2567 | 5296 | 1268 | 935 |
| CG13919 | SID104188180 | – | 4583 | – | 2007 | – |
| Vha16-4 (Vacuolar H[+] ATPase 16kD subunit 4) | SID104187113 | – | 5400 | – | 1591 | – |
| CG7786 | SID104186837 | – | 9908 | – | 3632 | – |
| Diedel2 (Diedel 2) | SID104193744 | – | 3236 | – | 1872 | – |
| Xport-A + Xport-B | SID104195378 | – | 2620 | 7910 | 1250 | 2026 |
| Pex12 (Peroxin 12) | SID104180414 | – | 2627 | 6528 | 882 | 2209 |
| CG15535 | SID104194863 | – | 9162 | – | 3685 | – |
| Cnep1r1 (CTD nuclear envelope phosphatase 1 regulatory subunit 1) | SID104200412 | – | 26338 | – | 1488 | – |
| Ranbp16 + Lcch3 | SID104200049 | – | 3062 | 12173 | 967 | 2451 |
| CG42594 | SID104197845 | – | 9600 | – | 1494 | – |
| CG42594 | SID104198200 | – | 18784 | – | 8769 | – |
| Ir67c (Ionotropic receptor 67c) | SID104201667 | – | 6.34e5 | 6.64e5 | 2.42e5 | 2.41e5 |
| CG31199 | SID104195076 | – | 2330 | 6498 | 1224 | 1661 |
| CG32793 | SID104197937 | – | 20040 | – | 15092 | – |
| CG32793 | SID104197986 | – | 19997 | – | 11815 | – |
| CG14562 | SID104191515 | – | 13693 | – | 2989 | – |
| hoe2 (hoepel2) | SID104180251 | – | 2134 | 5180 | 1204 | 1001 |
| Ance-3 | SID104182440 | – | 3579 | 9164 | 1305 | 3379 |
| Ance-3 | SID104182441 | – | 2567 | 6720 | 1497 | 3350 |
| trx (trithorax) | SID104196881 | – | 6821 | – | 1225 | – |
| CheA29a (Chemosensory protein A 29a) | SID104201216 | – | 5.25e5 | 4.90e5 | 2.10e5 | 1.79e5 |
| RpL34b (Ribosomal protein L34b) | SID104196267 | – | 18432 | – | 5734 | – |
